Publication PMC12390755
Results are given in words; binding and its absence hold for the method and conditions named. In cells and extracts the contact can be indirect. Some results given as binding are weak or reduced against the parent protein; the word gives no strength. Sequences can lack the tags named with a protein.

T1: Rmp64-3×Flag (UniProt Q8R2U2)
T1 sequence: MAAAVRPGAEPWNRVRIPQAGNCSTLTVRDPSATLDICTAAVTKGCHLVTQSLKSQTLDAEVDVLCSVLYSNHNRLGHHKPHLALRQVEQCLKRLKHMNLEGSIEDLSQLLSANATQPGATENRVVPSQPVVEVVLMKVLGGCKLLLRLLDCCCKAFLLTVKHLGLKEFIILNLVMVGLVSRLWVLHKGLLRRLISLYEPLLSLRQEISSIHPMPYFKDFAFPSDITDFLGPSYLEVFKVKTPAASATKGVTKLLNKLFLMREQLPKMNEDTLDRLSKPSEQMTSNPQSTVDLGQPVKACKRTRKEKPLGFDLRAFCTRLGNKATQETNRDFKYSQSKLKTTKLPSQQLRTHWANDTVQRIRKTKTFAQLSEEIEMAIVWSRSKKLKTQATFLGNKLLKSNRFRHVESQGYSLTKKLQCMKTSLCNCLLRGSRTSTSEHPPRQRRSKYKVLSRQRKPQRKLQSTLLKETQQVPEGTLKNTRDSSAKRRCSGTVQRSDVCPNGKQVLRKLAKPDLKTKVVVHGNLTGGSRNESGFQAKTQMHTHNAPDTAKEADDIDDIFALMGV

B1: Rmp24 (protein, UniProt Q5XFZ0 1-217)
chain: MRQKYYIEAAARGLVGSCPGQARYLLWAYSSTHEDNSTFQETCPHCFQLLVLDNSRVRLKPKAKLTPKIQKLLNREARNDTLSFKEAKLLRKYKDSTSVLLITCRTCNRTVRHHGKSRSFLWALKSNAATAANKASPKTPKRTAPGSANLGQSTNGSKGKSPSLTIRTPTSGQSTPICSSRNGSKRKKHFSQLKALLSQSASDKNPKLDFRHFLSSL
B2: Rpp21 (protein, UniProt Q8R040 1-150)
chain: MAGPVKDREAFQRLSFLYQAAHCVLSQNPENQALARFYCHTEKTIAKRLVLRQDPSVKRTLCRSCSSLLIPGLTCTQRQRRRKGQRWTVQTCLTCQRSQRFLNDPKHLLWGDRPEAQLENQADINPSEPLPNIADLPKENIQTQALNTSE

Target: T1, Rmp64-3×Flag
Experiment: co-IP; anti-FLAG M2 gel on E14 mESC lysate brought to 150 mM KCl (20 mM HEPES-KOH pH 7.9, 10% glycerol, 0.1% IGEPAL, 1 mM DTT), 2 h at 4 °C, Flag peptide elution, western blot of endogenous subunits

Binder | binding
B1 | binds
B2 | no binding
